Data: publication PMC3599175
No constants are given. Whether binding was seen depends on the method and setting. Binding seen in cells or lysates may run through a third protein. Some entries that bind do so weakly or less than the wild type.

Protein sequences, listed by entry. Tags and fused reporters are not part of them. Residues count along the entry.
UniProt P35570: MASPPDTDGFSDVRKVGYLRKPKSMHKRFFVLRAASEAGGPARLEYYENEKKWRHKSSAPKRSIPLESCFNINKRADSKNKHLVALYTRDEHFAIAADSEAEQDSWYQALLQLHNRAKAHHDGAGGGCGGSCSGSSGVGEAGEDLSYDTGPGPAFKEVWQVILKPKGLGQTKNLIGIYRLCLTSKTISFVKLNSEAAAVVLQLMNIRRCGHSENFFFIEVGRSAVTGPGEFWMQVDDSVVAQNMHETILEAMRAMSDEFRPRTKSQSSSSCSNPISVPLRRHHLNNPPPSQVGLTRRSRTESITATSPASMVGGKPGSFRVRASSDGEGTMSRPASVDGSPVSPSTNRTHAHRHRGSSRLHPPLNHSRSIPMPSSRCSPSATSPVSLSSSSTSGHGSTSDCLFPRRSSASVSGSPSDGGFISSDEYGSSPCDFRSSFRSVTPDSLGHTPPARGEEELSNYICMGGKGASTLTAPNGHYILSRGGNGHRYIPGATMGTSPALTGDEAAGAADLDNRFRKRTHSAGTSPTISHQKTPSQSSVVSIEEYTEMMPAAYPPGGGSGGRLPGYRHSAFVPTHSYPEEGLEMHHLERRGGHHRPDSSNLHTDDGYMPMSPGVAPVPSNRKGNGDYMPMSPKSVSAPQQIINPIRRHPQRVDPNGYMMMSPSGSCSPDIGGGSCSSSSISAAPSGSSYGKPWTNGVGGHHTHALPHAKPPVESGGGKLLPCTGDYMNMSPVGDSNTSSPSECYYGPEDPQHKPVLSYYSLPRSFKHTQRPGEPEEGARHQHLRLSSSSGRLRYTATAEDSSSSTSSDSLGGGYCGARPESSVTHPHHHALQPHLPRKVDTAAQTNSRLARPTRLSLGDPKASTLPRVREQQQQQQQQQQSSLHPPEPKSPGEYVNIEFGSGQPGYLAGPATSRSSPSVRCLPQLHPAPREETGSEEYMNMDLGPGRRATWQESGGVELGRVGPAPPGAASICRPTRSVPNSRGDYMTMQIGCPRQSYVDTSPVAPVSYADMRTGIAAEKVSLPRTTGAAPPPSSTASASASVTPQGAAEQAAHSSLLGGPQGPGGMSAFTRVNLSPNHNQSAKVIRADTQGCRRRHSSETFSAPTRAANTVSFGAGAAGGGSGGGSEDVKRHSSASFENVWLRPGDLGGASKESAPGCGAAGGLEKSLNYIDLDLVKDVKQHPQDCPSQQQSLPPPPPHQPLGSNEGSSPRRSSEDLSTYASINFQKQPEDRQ
UniProt P15127, residues 764-1383: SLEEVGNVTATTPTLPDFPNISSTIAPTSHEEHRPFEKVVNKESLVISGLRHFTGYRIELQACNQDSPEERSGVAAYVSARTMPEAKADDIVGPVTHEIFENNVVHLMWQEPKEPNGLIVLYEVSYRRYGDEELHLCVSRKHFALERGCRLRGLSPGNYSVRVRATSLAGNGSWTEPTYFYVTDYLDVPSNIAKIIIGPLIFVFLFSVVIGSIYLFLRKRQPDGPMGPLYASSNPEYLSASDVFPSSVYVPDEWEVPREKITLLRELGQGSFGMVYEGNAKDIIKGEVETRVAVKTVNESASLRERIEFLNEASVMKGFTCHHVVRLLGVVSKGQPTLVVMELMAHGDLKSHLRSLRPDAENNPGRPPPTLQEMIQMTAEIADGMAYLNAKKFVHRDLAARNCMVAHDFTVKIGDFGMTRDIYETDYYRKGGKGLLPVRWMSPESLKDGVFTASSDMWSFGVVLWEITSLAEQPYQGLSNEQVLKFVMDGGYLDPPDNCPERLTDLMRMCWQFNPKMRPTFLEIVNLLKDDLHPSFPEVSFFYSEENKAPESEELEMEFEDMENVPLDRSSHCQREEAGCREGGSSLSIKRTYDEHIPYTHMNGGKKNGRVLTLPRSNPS

Key:
[1] = biological target: insulin receptor substrate 1 (rat (endogenous in rat liver)) (UniProt P35570); test: co-IP; liver extracts (1% Triton X-100, 100 mM Tris pH 7.4, 4°C) of young, old and exercised old rats (16 h after acute swimming); IP with anti-IRβ or anti-IRS-1, protein A-Sepharose, blot with anti-PTP1B
[2] = biological target: insulin receptor β subunit (rat (endogenous in rat liver)) (UniProt P15127); test: as above

B1: protein-tyrosine phosphatase 1B (enzyme, UniProt P20417 1-432)
chain: MEMEKEFEQIDKAGNWAAIYQDIRHEASDFPCRIAKLPKNKNRNRYRDVSPFDHSRIKLHQEDNDYINASLIKMEEAQRSYILTQGPLPNTCGHFWEMVWEQKSRGVVMLNRIMEKGSLKCAQYWPQKEEKEMVFDDTNLKLTLISEDVKSYYTVRQLELENLATQEAREILHFHYTTWPDFGVPESPASFLNFLFKVRESGSLSPEHGPIVVHCSAGIGRSGTFCLADTCLLLMDKRKDPSSVDIKKVLLEMRRFRMGLIQTADQLRFSYLAVIEGAKFIMGDSSVQDQWKELSHEDLEPPPEHVPPPPRPPKRTLEPHNGKCKELFSNHQWVSEESCEDEDILAREESRAPSIAVHSMSSMSQDTEVRKRMVGGGLQSAQASVPTEEELSPTEEEQKAHRPVHWKPFLVNVCMATALATGAYLCYRVCFH
binding [1]: binds | binding [2]: binds
